Data as given in PubChem BioAssay AID1259254 (NCATS, 2017)
The whole screen tested about 59,000 reagents; shown is a part drawn at random. Over the whole deposit, about 1,550 (2.6%) are marked active. 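G2 share is only a proxy for re-replication; each gene was hit by three separate siRNAs, and active genes were retested.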 Reagents against one gene are numbered here. Not all columns of the deposit are shown. Reagent sequences are not shown. Not given: the amount of reagent.

- Purpose: 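Gene knock-downs that lead to re-replication, shown by excess G2 DNA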 (primary screen)
- Cells: human HCT116 colorectal cancer cells
- Reagent: single siRNA against human genes
- Duration: 3 days
- Measured: 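Imaged Hoechst DNA stain sorts each cell into a cycle phase by DNA amount; per plate, G2 fraction set to 0% for non-targeting and 100% for GMNN siRNA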
- Direction: G2 robust z-score: higher = more G2 cells, more excess DNA replication
- Hit rule: 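An siRNA counts as active if its G2 robust z-score lies at least 5 MADs above the screen median; here such calls match roughly 38% of GMNN control or more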

What is on record for CRYBG2 (GeneID 55057) #1?
G2 robust z-score: -0.712; outcome: inactive

For CRYBG2 (GeneID 55057) #2, what does the deposit list?
G2 robust z-score: -0.574; outcome: inactive

Which result is listed for CRYBG2 (GeneID 55057) #3?
G2 robust z-score: -0.987; outcome: inactive

Which result is listed for TIMP1 (GeneID 7076) #1?
G2 robust z-score: -0.0476; outcome: inactive

Which result is listed for TIMP1 (GeneID 7076) #2?
G2 robust z-score: -0.476; outcome: inactive

With TIMP1 (GeneID 7076) #3, what was measured?
G2 robust z-score: -0.637; outcome: inactive

What is on record for BEX2 (GeneID 84707) #1?
G2 robust z-score: -0.204; outcome: inactive

With BEX2 (GeneID 84707) #2, what does the deposit list?
G2 robust z-score: 0.312; outcome: inactive

What is on record for BEX2 (GeneID 84707) #3?
G2 robust z-score: 0.0697; outcome: inactive

With ZNF451 (GeneID 26036) #1, what does the deposit list?
G2 robust z-score: 3.05; outcome: inactive

Which result is listed for ZNF451 (GeneID 26036) #2?
G2 robust z-score: -0.685; outcome: inactive

Which result is listed for ZNF451 (GeneID 26036) #3?
G2 robust z-score: 1.06; outcome: inactive

Which result is listed for EXTL3 (GeneID 2137) #1?
G2 robust z-score: 0.69; outcome: inactive

With EXTL3 (GeneID 2137) #2, how do the results read?
G2 robust z-score: -0.968; outcome: inactive

What did the screen give for EXTL3 (GeneID 2137) #3?
G2 robust z-score: -0.881; outcome: inactive

2 entries from above, reformatted.
gene	reagent no.	G2 robust z-score	outcome
ZNF451 (GeneID 26036)	2	-0.685	inactive
ZNF451 (GeneID 26036)	3	1.06	inactive

The results go on.
For CST5 (GeneID 1473) #1, what was measured?
G2 robust z-score: 0.308; outcome: inactive

With CST5 (GeneID 1473) #2, what was measured?
G2 robust z-score: -0.468; outcome: inactive

For CST5 (GeneID 1473) #3, how do the results read?
G2 robust z-score: -0.543; outcome: inactive

With SNX5 (GeneID 27131) #1, what does the deposit list?
G2 robust z-score: 0.294; outcome: inactive

Which result is listed for SNX5 (GeneID 27131) #2?
G2 robust z-score: 2.47; outcome: inactive

Which result is listed for SNX5 (GeneID 27131) #3?
G2 robust z-score: -0.0348; outcome: inactive

For NT5C3B (GeneID 115024) #1, how do the results read?
G2 robust z-score: 1.96; outcome: inactive

What is on record for NT5C3B (GeneID 115024) #2?
G2 robust z-score: -0.539; outcome: inactive

What did the screen give for NT5C3B (GeneID 115024) #3?
G2 robust z-score: -0.531; outcome: inactive
